From publication PMC9843051

Target: Flag-tagged N-terminal domain of ODF2L (human)
Test: co-IP; immunoprecipitation against Flag from EOC cells cotransfected with Myc-PKMYT1, CDK1-V5 or Flag-tagged truncated ODF2L domains, followed by immunoblotting

B1: Myc-PKMYT1 (enzyme, UniProt Q99640 1-499)
chain: MLERPPALAMPMPTEGTPPPLSGTPIPVPAYFRHAEPGFSLKRPRGLSRSLPPPPPAKGSIPISRLFPPRTPGWHQLQPRRVSFRGEASETLQSPGYDPSRPESFFQQSFQRLSRLGHGSYGEVFKVRSKEDGRLYAVKRSMSPFRGPKDRARKLAEVGSHEKVGQHPCCVRLEQAWEEGGILYLQTELCGPSLQQHCEAWGASLPEAQVWGYLRDTLLALAHLHSQGLVHLDVKPANIFLGPRGRCKLGDFGLLVELGTAGAGEVQEGDPRYMAPELLQGSYGTAADVFSLGLTILEVACNMELPHGGEGWQQLRQGYLPPEFTAGLSSELRSVLVMMLEPDPKLRATAEALLALPVLRQPRAWGVLWCMAAEALSRGWALWQALLALLCWLWHGLAHPASWLQPLGPPATPPGSPPCSLLLDSSLSSNWDDDSLGPSLSPEAVLARTVGSTSTPRSRCTPRDALDLSDINSEPPRGSFPSFEPRNLLSLFEDTLDPT
binding: binds

These are yes or no findings as the source states them, for the method shown. In cells and extracts the contact can be indirect. Binding can be weak; no strength is given. Sequences can lack the tags named with a protein.
